The text below walks through data of the supplement of paper PMC10849652.

Protein sequences, listed by entry. Tags and fused reporters are not part of them. Lines headed by an entry give the natural chain unless they say otherwise; changes in a name come on top.
UniProt Q92598: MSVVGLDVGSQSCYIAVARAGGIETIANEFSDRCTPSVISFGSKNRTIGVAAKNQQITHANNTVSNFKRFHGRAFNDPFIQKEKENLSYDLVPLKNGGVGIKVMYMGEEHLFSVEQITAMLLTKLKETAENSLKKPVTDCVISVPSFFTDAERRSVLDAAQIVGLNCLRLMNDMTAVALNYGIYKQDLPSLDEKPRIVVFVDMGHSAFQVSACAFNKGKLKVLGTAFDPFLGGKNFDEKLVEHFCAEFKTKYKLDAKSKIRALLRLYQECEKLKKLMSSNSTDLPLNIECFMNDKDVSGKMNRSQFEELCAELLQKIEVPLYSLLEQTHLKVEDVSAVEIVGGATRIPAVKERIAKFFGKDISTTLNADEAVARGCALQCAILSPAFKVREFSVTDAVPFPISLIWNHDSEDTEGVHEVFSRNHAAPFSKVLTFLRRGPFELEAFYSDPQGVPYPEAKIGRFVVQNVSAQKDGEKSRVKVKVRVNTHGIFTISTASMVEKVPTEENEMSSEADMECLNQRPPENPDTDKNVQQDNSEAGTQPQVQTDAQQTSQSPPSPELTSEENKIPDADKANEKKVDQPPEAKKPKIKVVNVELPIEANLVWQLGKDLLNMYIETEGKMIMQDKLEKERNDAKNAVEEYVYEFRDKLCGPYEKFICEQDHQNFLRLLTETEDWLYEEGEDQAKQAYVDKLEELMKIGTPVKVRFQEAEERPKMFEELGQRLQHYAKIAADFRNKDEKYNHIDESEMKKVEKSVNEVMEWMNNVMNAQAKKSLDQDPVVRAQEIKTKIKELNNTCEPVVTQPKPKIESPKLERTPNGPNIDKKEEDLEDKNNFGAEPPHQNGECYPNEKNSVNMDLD
UniProt Q9Y547: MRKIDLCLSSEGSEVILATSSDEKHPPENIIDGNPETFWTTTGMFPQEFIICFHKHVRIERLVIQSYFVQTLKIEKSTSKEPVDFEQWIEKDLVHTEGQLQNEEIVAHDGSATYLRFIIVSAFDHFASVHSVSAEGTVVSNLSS
UniProt P31942: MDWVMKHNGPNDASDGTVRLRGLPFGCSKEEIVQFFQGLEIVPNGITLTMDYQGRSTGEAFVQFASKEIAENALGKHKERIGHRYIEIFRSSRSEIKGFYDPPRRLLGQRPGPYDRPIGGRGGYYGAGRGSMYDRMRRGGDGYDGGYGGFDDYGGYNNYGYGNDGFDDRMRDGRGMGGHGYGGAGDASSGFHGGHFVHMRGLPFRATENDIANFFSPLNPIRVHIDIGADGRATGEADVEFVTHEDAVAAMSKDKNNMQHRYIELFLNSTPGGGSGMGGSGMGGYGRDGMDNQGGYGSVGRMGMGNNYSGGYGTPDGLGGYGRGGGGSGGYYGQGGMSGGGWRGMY
UniProt P09429: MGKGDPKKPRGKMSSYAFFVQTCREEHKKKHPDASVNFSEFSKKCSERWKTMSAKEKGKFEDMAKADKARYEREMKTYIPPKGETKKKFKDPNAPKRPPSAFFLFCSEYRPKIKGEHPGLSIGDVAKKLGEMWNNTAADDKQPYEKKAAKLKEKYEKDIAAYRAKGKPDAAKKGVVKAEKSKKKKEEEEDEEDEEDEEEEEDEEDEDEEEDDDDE
UniProt P35914: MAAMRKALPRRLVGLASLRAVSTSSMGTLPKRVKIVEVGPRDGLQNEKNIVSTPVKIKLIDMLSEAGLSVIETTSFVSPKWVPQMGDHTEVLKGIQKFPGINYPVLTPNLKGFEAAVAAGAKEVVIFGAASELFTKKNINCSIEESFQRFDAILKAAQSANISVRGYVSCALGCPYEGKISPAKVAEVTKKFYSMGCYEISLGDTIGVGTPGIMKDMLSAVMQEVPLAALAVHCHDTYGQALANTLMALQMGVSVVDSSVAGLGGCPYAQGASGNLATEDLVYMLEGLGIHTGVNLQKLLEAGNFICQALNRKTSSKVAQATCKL
UniProt O15347: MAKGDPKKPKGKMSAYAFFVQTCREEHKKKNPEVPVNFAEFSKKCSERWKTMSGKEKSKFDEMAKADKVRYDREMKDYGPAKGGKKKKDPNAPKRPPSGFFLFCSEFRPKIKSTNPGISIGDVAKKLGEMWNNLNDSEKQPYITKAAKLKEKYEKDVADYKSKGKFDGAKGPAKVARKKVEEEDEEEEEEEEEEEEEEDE
UniProt P05114: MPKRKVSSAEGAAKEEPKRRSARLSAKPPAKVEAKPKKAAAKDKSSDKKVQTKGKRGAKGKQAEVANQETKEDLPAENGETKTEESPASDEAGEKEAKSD
UniProt P14625, whole entry, looked up: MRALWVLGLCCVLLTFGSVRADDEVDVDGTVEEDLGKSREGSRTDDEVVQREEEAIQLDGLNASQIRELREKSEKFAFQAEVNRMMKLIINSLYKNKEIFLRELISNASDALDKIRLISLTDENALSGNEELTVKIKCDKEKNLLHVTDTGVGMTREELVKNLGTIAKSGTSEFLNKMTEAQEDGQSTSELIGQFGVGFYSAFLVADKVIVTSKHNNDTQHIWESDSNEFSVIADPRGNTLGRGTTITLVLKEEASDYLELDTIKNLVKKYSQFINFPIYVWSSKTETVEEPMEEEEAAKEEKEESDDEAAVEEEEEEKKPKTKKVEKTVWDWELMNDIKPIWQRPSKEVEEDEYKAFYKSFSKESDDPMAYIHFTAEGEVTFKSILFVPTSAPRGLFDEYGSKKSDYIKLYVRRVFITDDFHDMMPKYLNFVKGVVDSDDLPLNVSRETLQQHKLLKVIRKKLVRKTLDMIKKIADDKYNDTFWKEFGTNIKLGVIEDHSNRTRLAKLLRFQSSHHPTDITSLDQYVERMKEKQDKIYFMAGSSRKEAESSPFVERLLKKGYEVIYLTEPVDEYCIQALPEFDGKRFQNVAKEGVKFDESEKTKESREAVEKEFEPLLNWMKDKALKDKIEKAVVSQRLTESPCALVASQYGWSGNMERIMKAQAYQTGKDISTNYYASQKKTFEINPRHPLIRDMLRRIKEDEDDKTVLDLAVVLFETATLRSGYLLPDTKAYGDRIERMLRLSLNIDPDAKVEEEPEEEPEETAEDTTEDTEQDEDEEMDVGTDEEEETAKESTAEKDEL
UniProt Q9P2D0: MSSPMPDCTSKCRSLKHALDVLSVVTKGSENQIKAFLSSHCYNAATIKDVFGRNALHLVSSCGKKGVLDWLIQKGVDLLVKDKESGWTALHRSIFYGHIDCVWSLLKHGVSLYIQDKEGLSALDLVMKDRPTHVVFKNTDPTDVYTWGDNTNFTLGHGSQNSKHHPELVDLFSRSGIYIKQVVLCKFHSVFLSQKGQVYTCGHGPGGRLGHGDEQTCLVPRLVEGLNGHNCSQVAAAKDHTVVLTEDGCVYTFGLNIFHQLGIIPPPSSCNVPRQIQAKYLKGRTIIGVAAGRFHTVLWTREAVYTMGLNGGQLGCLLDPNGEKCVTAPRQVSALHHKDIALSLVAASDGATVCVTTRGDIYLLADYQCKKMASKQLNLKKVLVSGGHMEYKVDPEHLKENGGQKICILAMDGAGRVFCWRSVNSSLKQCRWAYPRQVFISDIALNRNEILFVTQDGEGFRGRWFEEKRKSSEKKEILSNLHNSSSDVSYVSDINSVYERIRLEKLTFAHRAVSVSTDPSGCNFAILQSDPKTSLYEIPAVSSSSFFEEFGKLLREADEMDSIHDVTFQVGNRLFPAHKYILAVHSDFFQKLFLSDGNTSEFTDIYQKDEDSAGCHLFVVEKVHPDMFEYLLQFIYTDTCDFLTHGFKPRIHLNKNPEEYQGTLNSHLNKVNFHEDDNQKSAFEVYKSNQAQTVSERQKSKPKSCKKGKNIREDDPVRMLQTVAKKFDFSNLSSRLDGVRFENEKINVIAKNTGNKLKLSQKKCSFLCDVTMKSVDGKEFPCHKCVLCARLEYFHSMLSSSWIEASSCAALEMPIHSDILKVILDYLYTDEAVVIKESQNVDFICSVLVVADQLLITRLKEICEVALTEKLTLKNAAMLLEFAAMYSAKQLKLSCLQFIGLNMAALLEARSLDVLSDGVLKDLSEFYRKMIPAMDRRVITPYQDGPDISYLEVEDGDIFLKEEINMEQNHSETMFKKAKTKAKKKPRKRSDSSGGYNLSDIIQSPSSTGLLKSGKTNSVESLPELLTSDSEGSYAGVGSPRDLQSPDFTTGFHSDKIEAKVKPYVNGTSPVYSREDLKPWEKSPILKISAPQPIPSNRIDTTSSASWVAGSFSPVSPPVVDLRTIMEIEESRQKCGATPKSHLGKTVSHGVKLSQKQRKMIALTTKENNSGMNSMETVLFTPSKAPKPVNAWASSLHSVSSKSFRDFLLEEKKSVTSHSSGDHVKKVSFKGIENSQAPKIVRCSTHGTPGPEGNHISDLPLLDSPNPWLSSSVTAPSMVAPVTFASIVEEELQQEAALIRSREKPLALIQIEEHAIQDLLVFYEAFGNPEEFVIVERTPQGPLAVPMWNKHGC
UniProt O60921: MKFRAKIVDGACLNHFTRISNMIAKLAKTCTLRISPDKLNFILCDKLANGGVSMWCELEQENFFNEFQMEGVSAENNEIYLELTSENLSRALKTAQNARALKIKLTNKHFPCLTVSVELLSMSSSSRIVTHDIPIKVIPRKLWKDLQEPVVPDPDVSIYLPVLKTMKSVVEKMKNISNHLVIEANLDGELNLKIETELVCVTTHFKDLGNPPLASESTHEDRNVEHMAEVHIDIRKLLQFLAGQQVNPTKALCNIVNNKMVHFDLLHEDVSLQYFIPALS
UniProt P14735, whole entry, looked up: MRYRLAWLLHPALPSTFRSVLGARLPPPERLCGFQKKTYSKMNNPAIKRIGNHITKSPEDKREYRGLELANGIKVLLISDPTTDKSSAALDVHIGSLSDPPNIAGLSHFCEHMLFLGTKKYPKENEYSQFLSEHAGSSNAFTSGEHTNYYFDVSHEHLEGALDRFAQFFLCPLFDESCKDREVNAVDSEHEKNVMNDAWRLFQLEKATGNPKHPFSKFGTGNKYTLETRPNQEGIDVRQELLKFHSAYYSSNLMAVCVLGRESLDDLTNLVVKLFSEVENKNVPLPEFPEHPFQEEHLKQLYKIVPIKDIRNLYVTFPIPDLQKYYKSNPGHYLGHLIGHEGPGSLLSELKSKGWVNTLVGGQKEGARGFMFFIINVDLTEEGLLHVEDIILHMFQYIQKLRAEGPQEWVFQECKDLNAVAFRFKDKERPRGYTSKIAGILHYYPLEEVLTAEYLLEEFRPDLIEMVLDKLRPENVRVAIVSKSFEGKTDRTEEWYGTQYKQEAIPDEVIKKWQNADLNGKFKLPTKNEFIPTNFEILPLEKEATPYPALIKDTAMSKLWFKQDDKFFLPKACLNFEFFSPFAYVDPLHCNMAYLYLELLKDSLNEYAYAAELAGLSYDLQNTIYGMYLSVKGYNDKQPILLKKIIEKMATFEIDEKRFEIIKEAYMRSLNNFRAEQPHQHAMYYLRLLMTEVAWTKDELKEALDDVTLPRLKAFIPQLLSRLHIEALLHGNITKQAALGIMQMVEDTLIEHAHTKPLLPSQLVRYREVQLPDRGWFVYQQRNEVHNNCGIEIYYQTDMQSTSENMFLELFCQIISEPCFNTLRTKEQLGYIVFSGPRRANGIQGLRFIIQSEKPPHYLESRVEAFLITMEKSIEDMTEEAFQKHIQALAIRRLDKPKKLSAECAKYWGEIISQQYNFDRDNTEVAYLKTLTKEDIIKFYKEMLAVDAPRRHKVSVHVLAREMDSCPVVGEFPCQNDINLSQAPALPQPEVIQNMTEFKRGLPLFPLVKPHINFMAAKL
UniProt Q9BUJ2: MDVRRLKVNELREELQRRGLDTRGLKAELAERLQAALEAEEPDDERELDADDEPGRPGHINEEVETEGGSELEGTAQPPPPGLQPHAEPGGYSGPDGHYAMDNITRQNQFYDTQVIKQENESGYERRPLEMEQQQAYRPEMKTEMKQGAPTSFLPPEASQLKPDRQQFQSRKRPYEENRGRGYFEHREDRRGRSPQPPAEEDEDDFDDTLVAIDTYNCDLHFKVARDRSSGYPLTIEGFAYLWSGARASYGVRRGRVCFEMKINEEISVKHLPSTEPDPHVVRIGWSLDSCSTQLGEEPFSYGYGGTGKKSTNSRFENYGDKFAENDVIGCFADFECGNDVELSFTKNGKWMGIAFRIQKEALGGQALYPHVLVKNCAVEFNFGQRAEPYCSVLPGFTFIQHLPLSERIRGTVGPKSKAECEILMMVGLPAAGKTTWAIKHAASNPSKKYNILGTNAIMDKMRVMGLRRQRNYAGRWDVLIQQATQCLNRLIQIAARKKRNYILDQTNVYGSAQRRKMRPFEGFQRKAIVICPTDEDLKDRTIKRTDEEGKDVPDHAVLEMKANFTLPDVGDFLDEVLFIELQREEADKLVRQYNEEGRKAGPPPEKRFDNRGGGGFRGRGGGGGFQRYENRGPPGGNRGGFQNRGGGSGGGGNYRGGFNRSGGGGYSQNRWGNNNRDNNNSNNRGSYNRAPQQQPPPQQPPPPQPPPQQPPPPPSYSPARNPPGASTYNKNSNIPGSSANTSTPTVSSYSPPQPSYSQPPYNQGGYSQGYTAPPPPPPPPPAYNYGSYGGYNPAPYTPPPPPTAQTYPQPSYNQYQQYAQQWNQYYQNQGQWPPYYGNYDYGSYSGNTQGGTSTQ

This is one part of the list.

Compound in this assay: Cn1cc(-c2ccc3c(c2)CCN3C(=O)Cc2cccc(C(F)(F)F)c2)c2c(N)ncnc21
The assay can be described thus: log2 fold change, soluble protein after heating vs DMSO (PISA); higher = thermal stabilisation; K562 cells, 10 uM, 30 min; active = over 0.2 and 3.5 SD of the protein, either way, in both replicates (recomputed). The procedure, abridged:
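Thermal stability values are relative to control samples and come from duplicates. They are expressed as log2 fold changes. For measurement, K562 cells (2×10^6 cells/mL) received 10 μM compound for 30 min, and aliquots were heated for 3 min over 48°C-58°C, pooled, and extracted at 4°C in PBS with 0.5% NP-40. Soluble protein, the supernatant after 21,000xg for 90 min, was quantified by TMTpro 16plex LC-MS/MS with equalised channel sums.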
On to HSPH1 (UniProt Q92598), for which the log2 fold change is inactive: -0.011.

With HSPA8 (UniProt E9PK54), the log2 fold change is active: -0.409.

As for HNRNPK isoform 2 (UniProt P61978), the log2 fold change is inactive: 0.031.

HMGN5 (UniProt P82970): the log2 fold change is inactive: 0.019.

With HIST2H2BF isoform 2 (UniProt Q5QNW6), the log2 fold change was inactive: -0.358.

In the case of HSP90AB1 (UniProt P08238), the log2 fold change is inactive: 0.03.

As for HTRA2 (UniProt O43464), the log2 fold change was inactive: -0.008.

In the case of HSPB11 (UniProt Q9Y547), the log2 fold change is inactive: 0.068.

On to HNRNPH3 (UniProt P31942), for which the log2 fold change was inactive: -0.231.

On to HMGB1 (UniProt P09429), for which the log2 fold change is inactive: 0.002.

Regarding HMGCL (UniProt P35914), the log2 fold change was inactive: 0.067.

HMGB3 (UniProt O15347): the log2 fold change was inactive: 0.014.

For HMGN1 (UniProt P05114), the log2 fold change was inactive: -0.022.

With HTATSF1 (UniProt O43719), the log2 fold change is inactive: 0.008.

Consider HSP90B1 (UniProt P14625), for which the log2 fold change was inactive: -0.021.

Consider HP1BP3 (UniProt Q5SSJ5), for which the log2 fold change was inactive: -0.045.

Turning to IBTK (UniProt Q9P2D0), the log2 fold change was inactive: -0.079.

On to HOOK3 (UniProt Q86VS8), for which the log2 fold change was inactive: 0.002.

Turning to HNRNPM (UniProt P52272), the log2 fold change was inactive: -0.221.

Regarding HIRIP3 (UniProt Q9BW71), the log2 fold change was inactive: -0.009.

As to HUS1 (UniProt O60921), the log2 fold change was inactive: 0.069.

IDE (UniProt P14735): the log2 fold change was inactive: 0.017.

For HNRNPUL1 (UniProt Q9BUJ2), the log2 fold change was inactive: -0.03.
